Data reported in the supplement of paper PMC3334620.
The full ranking holds about 33,000 sequences; the median of “E-score (-0.5 to 0.5)” is about -8e-05, and the highest 2% start at about 0.23. Some of the results follow.

molecular target: T1, Nrg2 (UniProt P38082); assay: PBM E-score (8-mer binding enrichment) (E-score (-0.5 to 0.5)); higher = stronger / more preferred TF binding; settings: protein concentration: 100 nM; construct: GST-full length
T1 sequence: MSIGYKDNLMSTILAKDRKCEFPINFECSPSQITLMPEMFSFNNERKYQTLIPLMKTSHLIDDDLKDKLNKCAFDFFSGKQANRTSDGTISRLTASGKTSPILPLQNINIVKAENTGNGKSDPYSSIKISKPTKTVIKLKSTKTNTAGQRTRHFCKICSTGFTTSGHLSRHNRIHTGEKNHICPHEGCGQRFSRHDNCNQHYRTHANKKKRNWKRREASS
Outline: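 GST-tagged yeast TFs (full-length or DNA-binding domain) were made by PURExpress in vitro transcription/translation and applied at about 100-200 nM to universal all-10-mer Agilent arrays. The arrays were made double-stranded by primer extension, on fresh or once-stripped slides. Bound protein was detected with fluorescent anti-GST, and scans were normalised with masliner. Each ungapped eight-base word, pooled with its reverse complement, received an E-score (modified Wilcoxon-Mann-Whitney statistic) from the Universal PBM Analysis Suite.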

Sequence	PBM E-score
GAGAGTAA	0.146
ACCACGCT	-0.204
ATAGGTTG	-0.0799
CCCTGCGA	0.106
CGTCGGCA	-0.114
CGTCGCAA	0.179
CGGCGTGA	0.023
AGGGTGCA	0.256
CCTACCAA	0.0987
AACTTGAA	0.0613
CTTTCTGA	-0.0661
AAATCACC	0.137
AATCCGCT	0.00723
GTCAAAGA	-0.0048
GCACAGGA	0.00824
GGATATAC	0.059
ACAGCTCA	0.00949
TACGTAGA	-0.122
ATAGACAG	0.193
CATTCCGC	-0.0221
CTCGGTTC	-0.317
AGAGTGCT	0.105
AAGTATTC	0.0863
AACGCCTT	-0.15
ATTTGGCC	0.0466

Sequence	PBM E-score
CAGCTCAA	0.118
CGGCGTTA	-0.11
ATCATAAT	0.216
ATTGAGCC	0.167
CCTCCTAA	-0.226
CAGTTTGC	-0.00309
CATAAAGG	-0.0144
CAGTCTCC	-0.221
GATAGACC	0.0652
CACCAGGC	-0.0949
ATAAAAAC	0.121
CACCTAAG	0.0319
TATAAGGA	0.136
TAAGTAGA	0.0125
CCCTTCAG	-0.0444
ATCTCAGA	-0.0914
CACCGATA	0.0717
AGTTATGG	0.0276
ATTCACGC	-0.0865
ATGATGCC	-0.0974
AACCGGGC	-0.192
GAAGCCCA	-0.144
GATGTACC	0.0817
GACTACGA	-0.12
AGCTGTAA	-0.125

Sequence	PBM E-score
CCGGTGCA	-0.0404
TATGGTCA	-0.00136
CTCATATC	0.026
CCTTTGAG	-0.194
CCGGCAGG	-0.107
CGAAAGTA	0.00179
CTTACTTC	0.171
CTGTCCAA	0.0159
GGTCTGAC	0.0413
CCACCCTA	0.0378
GGGCGCCA	0.191
GACTCGGA	-0.226
CCATTTCG	0.106
AACATAAC	0.134
CCGATTAG	0.167
CCATTTAG	-0.105
ATCCTGGG	-0.0505
TCTTGTAA	0.111
CACCTGGA	0.00174
CTCGGTTA	-0.0602
ACGGAAGG	-0.157
CTATCAAA	0.167
TCAAGCCA	-0.116
CCCCGAGC	-0.128
CTCCGGGC	-0.251

Sequence	PBM E-score
AGATGCTG	-0.0346
GAAAGGTA	0.041
GCGTGCCC	-0.202
CCTAGAGA	-0.0881
CCTACGAG	-0.0653
CTAGTGTA	0.0189
AAAAACCC	-0.0196
TCGGCGCA	0.0454
GCAGCTGC	0.065
GATGCTCC	-0.171
GTTTCATA	0.111
AACTTCGG	0.181
CGCAACGA	-0.0652
ATTTCAGA	-0.0277
CAGATGCG	-0.208
TTCGGCAA	0.0192
AAACTAGG	-0.0197
CTCAAAAA	0.00893
GGTCCCCA	0.0724
GTTGAACA	-0.17
TAAGAAAA	0.0826
CGTTCCAA	0.0437
CCACAAAC	0.0398
GCCCGTAC	-0.171
AGCCCTCA	-0.352

Random excerpt: 7 entries already listed.
Sequence	PBM E-score
CCACAAAC	0.0398
CCTAGAGA	-0.0881
GCCCGTAC	-0.171
CCTACGAG	-0.0653
AAAAACCC	-0.0196
CTCAAAAA	0.00893
ATTTCAGA	-0.0277

The list continues.

Sequence	PBM E-score
GGTCTGCA	0.0521
CGCTACGC	-0.194
ACGCTCAT	0.0679
ATTTCGGG	0.037
AAAGGGAC	0.2
ACTGGTAT	-0.037
ACTCGACA	0.0351
CTTTATAA	-0.0955
ACAATTGC	0.108
ACATTTAC	-0.0926
CGGCGTAG	-0.0383
CTACGATC	-0.0186
ACCGGGTC	-0.102
GGGCATAC	-0.0877
CGTTTTTA	0.0591
CTAAAGGC	-0.139
ATTCAGAC	0.066
CCTAGTGA	-0.111
CTCTGTCA	-0.114
CTTTGTTC	0.0376
AATACGGA	0.0626
GGCGCCTA	-0.0964
TAGAGCTA	-0.161
AACGAGAG	0.132
ATGGTACG	0.128

Sequence	PBM E-score
GGTCTCAC	-0.00822
AAGGGTGT	0.0853
CCCACGGA	-0.0902
AGATTAAT	0.204
ATGCACAC	0.126
AATTCGTG	0.099
CCTTGCTC	0.0643
CAAAGCGA	0.13
CATGATAG	-0.0209
CGAACTTC	0.0866
CTAAGCGC	0.0774
CAGCCTGC	-0.252
ACAAGCAA	0.116
AAGGACGG	-0.207
CGATGTAC	0.0253
CCGTTCCG	-0.113
ACCCGCCA	-0.0482
GTCTACAA	-0.138
AGACCCAG	-0.0984
AGCTGCCG	-0.0333
ACCCCAGA	-0.0606
GAATAATC	0.185
CTCGGACC	0.0798
CAGATTAA	0.195
GTCTGAAA	-0.036

Sequence	PBM E-score
AACCGTAA	-0.144
ATCCCCGC	0.0386
AAGCCAGG	-0.0511
GATTATAC	0.235
ATAGGTGA	0.00908
CCGACCAG	0.003
TGCTGCAA	0.126
CTACTCGC	0.0918
CAGAGCAA	0.113
CCGGAACC	-0.0182
CTGGTGCA	-0.0138
CATGACTC	-0.235
TCCCCCAA	-0.362
TGGCGGAA	-0.217
CTGTGATC	-0.00403
GGATTTAA	0.00734
ACCGGAAA	-0.00514
AAATCTAT	0.0789
GCCCATAC	-0.0451
CTTTAATC	0.037
CAAGGGAA	0.0785
GACTGTCA	-0.108
